These are yes or no findings as the source states them, for the method shown. In cells and extracts the contact can be indirect. Some binding calls cover weakened binding; strength is not graded here.
target: T1, Complement component 1, q subcomponent binding protein (mouse (endogenous in GC-1 spg)) (UniProt O35658); test: co-IP; co-immunoprecipitation of C1qbp followed by Western blotting, in wild-type and Rsrc1+/+/circRsrc1-/- GC-1 spg cells
T1 sequence: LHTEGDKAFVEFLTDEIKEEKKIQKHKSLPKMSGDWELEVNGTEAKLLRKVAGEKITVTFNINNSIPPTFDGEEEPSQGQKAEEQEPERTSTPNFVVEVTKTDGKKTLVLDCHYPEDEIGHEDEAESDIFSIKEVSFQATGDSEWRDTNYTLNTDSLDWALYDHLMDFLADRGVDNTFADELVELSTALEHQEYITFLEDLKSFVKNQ

The chains behind the UniProt entries cited, without tags or fusion partners. Residues count along the entry.
UniProt Q9CXW2: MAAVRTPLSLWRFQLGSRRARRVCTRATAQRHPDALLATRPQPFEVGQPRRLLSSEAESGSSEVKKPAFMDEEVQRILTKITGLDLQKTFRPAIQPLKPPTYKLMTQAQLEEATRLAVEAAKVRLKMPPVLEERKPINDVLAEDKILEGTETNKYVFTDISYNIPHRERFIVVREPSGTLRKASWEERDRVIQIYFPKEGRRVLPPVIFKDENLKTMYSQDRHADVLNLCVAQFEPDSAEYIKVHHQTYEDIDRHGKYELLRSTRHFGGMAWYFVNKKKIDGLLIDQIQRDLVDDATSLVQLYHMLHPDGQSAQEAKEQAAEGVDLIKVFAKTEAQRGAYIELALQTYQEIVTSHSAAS
UniProt Q9ER88, residues 18-391: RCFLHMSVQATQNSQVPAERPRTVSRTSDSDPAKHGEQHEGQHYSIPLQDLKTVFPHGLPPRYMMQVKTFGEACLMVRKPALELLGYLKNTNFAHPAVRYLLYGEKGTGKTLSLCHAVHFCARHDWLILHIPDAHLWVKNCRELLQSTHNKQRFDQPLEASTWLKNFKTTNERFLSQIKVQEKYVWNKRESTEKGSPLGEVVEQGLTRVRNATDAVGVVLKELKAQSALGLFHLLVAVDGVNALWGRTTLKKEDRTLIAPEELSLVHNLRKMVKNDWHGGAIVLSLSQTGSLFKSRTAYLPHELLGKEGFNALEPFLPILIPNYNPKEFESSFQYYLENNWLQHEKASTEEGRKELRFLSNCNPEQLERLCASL

binding	Substance
binds	Mitochondrial ribosomal protein L3 (from UniProt Q99N95 41-348)
binds	Mitochondrial ribosomal protein S22 (from UniProt Q9CXW2 1-359)
binds	Mitochondrial ribosomal protein S29 (from UniProt Q9ER88 18-391)

From article PMC10127071
